From US12538701B2, “Compound and organic light emitting device comprising the same” (LG Chem, Ltd., priority 2020, dated 2026)

Test: Organic light emitting device evaluation with the compound as dopant of the light emitting layer
Conditions: for Driving voltage (V @10 mA/cm^2): device with compound as dopant of light emitting layer (2:98 with Compound D); for EQE (% @10 mA/cm^2): external quantum efficiency, device with compound as dopant of light emitting layer; for Lifetime (hr) (T90 @500 nit): time for luminance to fall to 90% of initial luminance (500 nit), 10 mA/cm^2
Protocol: A glass substrate thinly coated with indium tin oxide (ITO) to have a thickness of 500 Å was put into distilled water in which a detergent was dissolved, and ultrasonically washed. In this case, a product manufactured by Fischer Co., was used as the detergent, and distilled water twice filtered using a filter manufactured by Millipore Co., was used as the distilled water. After the ITO was washed for 30 minutes, ultrasonic washing was conducted twice repeatedly using distilled water for 10 minutes. After the washing using distilled water was completed, ultrasonic washing was conducted using isopropyl, and acetone solvents, and drying was conducted, and then the substrate was cleaned for 5 minutes, and then transferred to a glove box.
A coating composition, in which the following Compound B and the following Compound C (weight ratio of 2:8) were dissolved in 20 wt/v % cyclohexanone, was spin-coated (4000 rpm) on the ITO transparent electrode, and heat-treated (cured) at 200° C. for 30 minutes to form a hole injection layer with a thickness of 400 Å. A coating composition, in which the following Compound A (Mn: 27,900; Mw: 35,600; measured by gel permeation chromatography (GPC) on Agilent 1200 series, relative to PC standards) was dissolved in 6 wt/v % toluene, spin-coated (4000 rpm) on the hole injection layer, and heat-treated at 200° C. for 30 minutes to form a hole transport layer with a thickness of 200 Å.
A coating composition, in which Compound 1 prepared in Preparation Example 1 and the following Compound D (weight ratio of 2:98) were dissolved in 2 wt/v % cyclohexanone, spin-coated (4000 rpm) on the hole transport layer, and heat-treated at 180° C. for 30 minutes to form a light emitting layer with a thickness of 400 Å.
After being transferred to a vacuum depositor, the following Compound E was vacuum-deposited to a thickness of 350 Å on the light emitting layer to form an electron injection and transport layer.
LiF and aluminum were sequentially deposited to have a thickness of 10 Å and 1000 Å, respectively, on the electron injection and transport layer, thereby forming a cathode.
In the above-mentioned process, the vapor deposition rate of the organic material was maintained at 0.4 to 0.7 Å/sec, the deposition rate of LiF was maintained at 0.3 Å/sec, the deposition rate of aluminum was maintained at 2 Å/sec, and the degree of vacuum during the deposition was maintained at 2×10^−7 to 5×10^−8 torr.
An organic light emitting device was manufactured in the same manner as in Example 1, except that the compounds shown in Table 2 below were used instead of Compound 1 as a dopant of the light emitting layer.
An organic light emitting device was manufactured in the same manner as in Example 1, except that the compounds shown in Table 2 below were used instead of Compound 1 as a dopant in the light emitting layer.
The driving voltage, external quantum efficiency (EQE), and lifetime were measured by applying a current of 10 mA/cm^2 to the organic light emitting devices manufactured in the Examples and Comparative Examples, and the results are shown in Table 2 below. At this time, the external quantum efficiency (EQE) was calculated as “(the number of emitted photon)/(the number of injected charge carrier)*100”, and T90 means the time required for the luminance to be reduced to 90% of the initial luminance (500 nit).

| Compound | Driving voltage (V @10 mA/cm^2) [V] | EQE (% @10 mA/cm^2) [%] | Lifetime (hr) (T90 @500 nit) [h] |
| --- | --- | --- | --- |
| Cc1cccc(N(c2ccc3c(ccc4c5c(ccc6c7ccc8cc(N(c9cccc(C)c9)c9cccc%10c9oc9ccccc9%10)ccc8c7n(-c7ccccc7)c65)n(-c5ccccc5)c34)c2)c2cccc3c2oc2ccccc23)c1 [Compound 1] | 4.68 | 8.89 | 131 |
| Cc1cccc(N(c2ccc3c(ccc4c5cc6c7ccc8cc(N(c9cccc(C)c9)c9cccc%10c9oc9ccccc9%10)ccc8c7n(-c7ccccc7)c6cc5n(-c5ccccc5)c34)c2)c2cccc3c2oc2ccccc23)c1 [Compound 2] | 4.69 | 8.87 | 133 |
| Cc1cccc(N(c2ccc3c(ccc4c5cc6c(cc5n(-c5ccccc5)c34)c3ccc4cc(N(c5cccc(C)c5)c5cccc7c5oc5ccccc57)ccc4c3n6-c3ccccc3)c2)c2cccc3c2oc2ccccc23)c1 [Compound 3] | 4.64 | 8.69 | 142 |
| Cc1cccc(N(c2ccc3c(ccc4c5c6c7ccc8cc(N(c9cccc(C)c9)c9cccc%10c9oc9ccccc9%10)ccc8c7n(-c7ccccc7)c6ccc5n(-c5ccccc5)c34)c2)c2cccc3c2oc2ccccc23)c1 [Compound 4] | 4.62 | 8.87 | 129 |
| Cc1cccc(N(c2ccc3c(ccc4c5ccc6c7ccc8cc(N(c9cccc(C)c9)c9cccc%10c9oc9ccccc9%10)ccc8c7n(-c7ccccc7)c6c5n(-c5ccccc5)c34)c2)c2cccc3c2oc2ccccc23)c1 [Compound 5] | 4.69 | 8.69 | 130 |
| c1ccc(-n2c3ccccc3c3cc(-c4ccc(N(c5ccc6ccccc6c5)c5ccc6c(ccc7c8c(ccc9c%10ccc%11cc(N(c%12ccc(-c%13ccc%14c(c%13)c%13ccccc%13n%14-c%13ccccc%13)cc%12)c%12ccc%13ccccc%13c%12)ccc%11c%10n(-c%10ccccc%10)c98)n(-c8ccccc8)c67)c5)cc4)ccc32)cc1 [Compound 6] | 4.61 | 8.78 | 127 |
| c1ccc(-n2c3ccccc3c3cc(-c4ccc(N(c5ccc6ccccc6c5)c5ccc6c(ccc7c8cc9c%10ccc%11cc(N(c%12ccc(-c%13ccc%14c(c%13)c%13ccccc%13n%14-c%13ccccc%13)cc%12)c%12ccc%13ccccc%13c%12)ccc%11c%10n(-c%10ccccc%10)c9cc8n(-c8ccccc8)c67)c5)cc4)ccc32)cc1 [Compound 7] | 4.62 | 8.96 | 138 |
| c1ccc(-n2c3ccccc3c3cc(-c4ccc(N(c5ccc6ccccc6c5)c5ccc6c(ccc7c8cc9c(cc8n(-c8ccccc8)c67)c6ccc7cc(N(c8ccc(-c%10ccc%11c(c%10)c%10ccccc%10n%11-c%10ccccc%10)cc8)c8ccc%10ccccc%10c8)ccc7c6n9-c6ccccc6)c5)cc4)ccc32)cc1 [Compound 8] | 4.67 | 8.57 | 140 |
| c1ccc(-n2c3ccccc3c3cc(-c4ccc(N(c5ccc6ccccc6c5)c5ccc6c(ccc7c8c9c%10ccc%11cc(N(c%12ccc(-c%13ccc%14c(c%13)c%13ccccc%13n%14-c%13ccccc%13)cc%12)c%12ccc%13ccccc%13c%12)ccc%11c%10n(-c%10ccccc%10)c9ccc8n(-c8ccccc8)c67)c5)cc4)ccc32)cc1 [Compound 9] | 4.36 | 8.74 | 137 |
| c1ccc(-n2c3ccccc3c3cc(-c4ccc(N(c5ccc6ccccc6c5)c5ccc6c(ccc7c8ccc9c%10ccc%11cc(N(c%12ccc(-c%13ccc%14c(c%13)c%13ccccc%13n%14-c%13ccccc%13)cc%12)c%12ccc%13ccccc%13c%12)ccc%11c%10n(-c%10ccccc%10)c9c8n(-c8ccccc8)c67)c5)cc4)ccc32)cc1 [Compound 10] | 4.52 | 8.69 | 129 |
| c1ccc(N(c2ccc3cc(-c4cc5ccccc5o4)ccc3c2)c2ccc3c(ccc4c5c(ccc6c7ccc8cc(N(c9ccccc9)c9ccc%10cc(-c%11cc%12ccccc%12o%11)ccc%10c9)ccc8c7n(-c7ccccc7)c65)n(-c5ccccc5)c34)c2)cc1 [Compound 11] | 4.45 | 8.72 | 137 |
| c1ccc(N(c2ccc3cc(-c4cc5ccccc5o4)ccc3c2)c2ccc3c(ccc4c5cc6c7ccc8cc(N(c9ccccc9)c9ccc%10cc(-c%11cc%12ccccc%12o%11)ccc%10c9)ccc8c7n(-c7ccccc7)c6cc5n(-c5ccccc5)c34)c2)cc1 [Compound 12] | 4.68 | 8.80 | 129 |
| c1ccc(N(c2ccc3cc(-c4cc5ccccc5o4)ccc3c2)c2ccc3c(ccc4c5cc6c(cc5n(-c5ccccc5)c34)c3ccc4cc(N(c5ccccc5)c5ccc7cc(-c8cc9ccccc9o8)ccc7c5)ccc4c3n6-c3ccccc3)c2)cc1 [Compound 13] | 4.51 | 8.65 | 148 |
| c1ccc(N(c2ccc3cc(-c4cc5ccccc5o4)ccc3c2)c2ccc3c(ccc4c5c6c7ccc8cc(N(c9ccccc9)c9ccc%10cc(-c%11cc%12ccccc%12o%11)ccc%10c9)ccc8c7n(-c7ccccc7)c6ccc5n(-c5ccccc5)c34)c2)cc1 [Compound 14] | 4.63 | 8.67 | 137 |
| c1ccc(N(c2ccc3cc(-c4cc5ccccc5o4)ccc3c2)c2ccc3c(ccc4c5ccc6c7ccc8cc(N(c9ccccc9)c9ccc%10cc(-c%11cc%12ccccc%12o%11)ccc%10c9)ccc8c7n(-c7ccccc7)c6c5n(-c5ccccc5)c34)c2)cc1 [Compound 15] | 4.71 | 8.64 | 135 |
| CC1(C)c2ccccc2-c2ccc(-n3c4cc5c6ccc7cc(N(c8ccccc8)c8ccc9cc(-c%10cc%11ccccc%11o%10)ccc9c8)ccc7c6n(-c6ccc7c(c6)C(C)(C)c6ccccc6-7)c5cc4c4ccc5cc(N(c6ccccc6)c6ccc7cc(-c8cc9ccccc9o8)ccc7c6)ccc5c43)cc21 [Compound 16] | 4.62 | 8.75 | 142 |
| [2H]c1c([2H])c([2H])c(-n2c3cc4c5ccc6cc(N(c7ccccc7)c7ccc8cc(-c9cc%10ccccc%10o9)ccc8c7)ccc6c5n(-c5c([2H])c([2H])c([2H])c([2H])c5[2H])c4cc3c3ccc4cc(N(c5ccccc5)c5ccc6cc(-c7cc8ccccc8o7)ccc6c5)ccc4c32)c([2H])c1[2H] [Compound 17] | 4.65 | 8.52 | 143 |
| CC(C)(C)c1ccc(N(c2ccc3cc(-c4cc5ccccc5o4)ccc3c2)c2ccc3c(ccc4c5cc6c(cc5n(-c5ccc(C(C)(C)C)cc5)c34)c3ccc4cc(N(c5ccc(C(C)(C)C)cc5)c5ccc7cc(-c8cc9ccccc9o8)ccc7c5)ccc4c3n6-c3ccc(C(C)(C)C)cc3)c2)cc1 [Compound 18] | 4.70 | 8.69 | 146 |
| Cc1cccc(N(c2ccc3c4c5ccc6c(c5ccc4n(-c4ccccc4)c3c2)c2ccc(N(c3cccc(C)c3)c3cccc4c3oc3ccccc34)cc2n6-c2ccccc2)c2cccc3c2oc2ccccc23)c1 [Compound F, reference compound] | 4.70 | 6.87 | 58 |
| CC(C)(C)c1ccc(N(c2ccc(C(C)(C)C)cc2)c2ccc3c4c5ccc6c(c5ccc4n(-c4ccccc4)c3c2)c2ccc(N(c3ccc(C(C)(C)C)cc3)c3ccc(C(C)(C)C)cc3)cc2n6-c2ccccc2)cc1 [Compound G, reference compound] | 4.68 | 7.11 | 67 |
